Experimental data published in EP3250181B1, “MINOXIDIL-BASED PHARMACEUTICAL FORMULATION FOR THE TOPICAL USE AND KIT THEREOF” (Farmalabor S.r.l., priority 2014, dated 2016).
At least one structure is not confirmed: it was looked up by name or label, or the drawing left a doubt.

Tests used:
[1] = with β-CD; Calderini A. et al., 2008; cited from earlier work
[2] = Stability, second study: cold-warm cycle in climate room for 60 hours; conditions: low temperature in the climate room (4°C)
[3] = Stability, third study: climate room for 3 months at 25°C and 60% RH; type: physicochemical; conditions: gel in polypropylene container, climate room 25°C, RH 60%, no light
[4] = Stability, first study: real storage conditions, HPLC; conditions: formulation A gel, room temperature
[5] = not protected from the light, week 0
[6] = not protected from the light, week 1
[7] = not protected from the light, week 2
[8] = not protected from the light, week 3
[9] = not protected from the light, week 4
[10] = not protected from the light, week 5
[11] = protected from the light, week 0
[12] = protected from the light, week 1
[13] = protected from the light, week 2
[14] = protected from the light, week 3
[15] = protected from the light, week 4
[16] = protected from the light, week 5

In the case of `Nc1cc(N2CCCCC2)nc(N)[n+]1[O-]` [Minoxidil], the “inclusion constant (Kc)” value [1] is given as 150 M⁻¹, the “precipitate formation into the gel” value [2] is given as “does not result in any precipitate formation” and the Concentration ([3]; week 0) is given as 0.035 mg/mL. For the same molecule, the MXD % ([3]; week 0) was 100%, the Concentration ([3]; week 2) was 0.036 mg/mL and the MXD % ([3]; week 2) was 103%. For the same molecule, the Concentration ([3]; week 4) was 0.034 mg/mL, the MXD % ([3]; week 4) was 97% and the Concentration ([3]; week 6) was 0.036 mg/mL. For the same molecule, the MXD % ([3]; week 6) was 103%, the Concentration ([3]; week 8) was 0.037 mg/mL and the MXD % ([3]; week 8) was 106%. It also gave a Concentration ([3]; week 10) of 0.035 mg/mL, an MXD % ([3]; week 10) of 100% and a Concentration ([3]; week 12) of 0.036 mg/mL. The MXD % ([3]; week 12) was 103%, the Concentration [4, 5] was 0.036 mg/mL and the MXD % [4, 5] was 100%. The Concentration [4, 6] was 0.037 mg/mL, the MXD % [4, 6] was 102% and the Concentration [4, 7] was 0.038 mg/mL. It also gave an MXD % [4, 7] of 106%, a Concentration [4, 8] of 0.037 mg/mL and an MXD % [4, 8] of 104%. For the same molecule, the Concentration [4, 9] was 0.037 mg/mL, the MXD % [4, 9] was 104% and the Concentration [4, 10] was 0.042 mg/mL. It also gave an MXD % [4, 10] of 116%, a Concentration [4, 11] of 0.036 mg/mL and an MXD % [4, 11] of 100%. It also gave a Concentration [4, 12] of 0.036 mg/mL, an MXD % [4, 12] of 100% and a Concentration [4, 13] of 0.035 mg/mL. The MXD % [4, 13] was 98.6%, the Concentration [4, 14] was 0.035 mg/mL and the MXD % [4, 14] was 98%. The Concentration [4, 15] was 0.040 mg/mL, the MXD % [4, 15] was 111% and the Concentration [4, 16] was 0.041 mg/mL. For the same molecule, the MXD % [4, 16] was 114%.
